Data as given in PubChem BioAssay AID330 (DTP/NCI, 2004).
The list does not hold the whole screen: it is rich in T/C values a quarter to a half above the control, in often repeated tests (any T/C) and in doses without a T/C. Further doses and runs are listed elsewhere. T/C is the treated group as % of the vehicle group. Some doses have a count of surviving animals in place of a T/C: the source holds a T/C of zero for them, seemingly a mark for toxic or unscored doses. Some survivor counts are full or nearly so, which does not show that the dose was tolerated: the source hardly ever lists a survival T/C far under the control, and the zero likely stands for such cases as well. Survivors were counted at the toxicity check, usually on the fifth day, unless a day is given; later deaths do not show. Schedule codes are those of the source, read here as Q, the interval in days (D) or hours (H), X, the number of doses. Some entries were tested several times; their values stand side by side, smallest first. Some structures stand for samples that the source files as different forms (salt, stereo form or complex); doses refer to the form tested. Where survival is the endpoint, this PubChem deposit counts one and a half times the control or more as active, and values a quarter to a half above the control carry no call in these data; other NCI protocols may use other cut-offs.

System: P388 leukemia ip, CD2F1 mice, survival T/C
Assay: NCI In Vivo Anticancer Drug Screen. Data for tumor model P388 Leukemia (intraperitoneal) in CD2F1 (CDF1) mice
Conditions: T/C endpoint: median survival time, higher T/C = longer survival
[1] = dose: 12.5 mg/kg/injection, schedule: Q01DX005 (ip), vehicle: saline with Tween-80
[2] = dose: 25.0 mg/kg/injection, schedule: Q01DX005 (ip), vehicle: saline with Tween-80
[3] = dose: 50.0 mg/kg/injection, schedule: Q01DX005 (ip), vehicle: saline with Tween-80
[4] = dose: 100.0 mg/kg/injection, schedule: Q01DX005 (ip), vehicle: saline with Tween-80
[5] = dose: 200.0 mg/kg/injection, schedule: Q01DX009 (ip), vehicle: saline
[6] = dose: 12.5 mg/kg/injection, schedule: Q01DX009 (ip), vehicle: saline
[7] = dose: 240.0 mg/kg/injection, schedule: Q01DX005 (ip), vehicle: saline with Tween-80
[8] = dose: 100.0 mg/kg/injection, schedule: Q04DX002 (ip), vehicle: saline with Tween-80
[9] = dose: 200.0 mg/kg/injection, schedule: Q04DX002 (ip), vehicle: saline with Tween-80
[10] = dose: 400.0 mg/kg/injection, schedule: Q04DX002 (ip), vehicle: saline with Tween-80
[11] = dose: 240.0 mg/kg/injection, schedule: Q01DX005 (ip), vehicle: Klucel (hydroxypropylcellulose) (HPC)
[12] = dose: 50.0 mg/kg/injection, schedule: Q01DX009 (ip), vehicle: Klucel (hydroxypropylcellulose) (HPC)
[13] = dose: 50.0 mg/kg/injection, schedule: Q01DX009 (ip), vehicle: saline with Tween-80
[14] = dose: 200.0 mg/kg/injection, schedule: Q01DX009 (ip), vehicle: saline with Tween-80
[15] = dose: 200.0 mg/kg/injection, schedule: Q01DX005 (ip), vehicle: saline with Tween-80
[16] = dose: 100.0 mg/kg/injection, schedule: Q01DX009 (ip), vehicle: saline with Tween-80

In the case of `CO[C@@]12[C@@H]3N[C@@H]3CN1C1=C(C(=O)C(N3CCCC3)=C(C)C1=O)[C@@H]2COC(N)=O`, the T/C (dose: 0.78 mg/kg/injection, schedule: Q01DX005 (ip), vehicle: saline with Tween-80) is reported as 141 % of control, the T/C (dose: 1.56 mg/kg/injection, schedule: Q01DX005 (ip), vehicle: saline with Tween-80) is reported as 138, 141, 161, 196, 200 % of control and the T/C (dose: 2.25 mg/kg/injection, schedule: Q01DX005 (ip), vehicle: saline with Tween-80) is reported as 149 % of control. The T/C (dose: 3.12 mg/kg/injection, schedule: Q01DX005 (ip), vehicle: saline with Tween-80) was 137, 191, 209, 232 % of control, the T/C (dose: 3.13 mg/kg/injection, schedule: Q01DX005 (ip), vehicle: saline with Tween-80) was 144 % of control and the T/C (dose: 6.25 mg/kg/injection, schedule: Q01DX005 (ip), vehicle: saline with Tween-80, evaluated on day 23) was 214 % of control. The T/C (dose: 6.25 mg/kg/injection, schedule: Q01DX005 (ip), vehicle: saline with Tween-80, evaluated on day 30) was 186, 194, 205, 224, 241, 272 % of control, the T/C [1] was 191 and 217 % of control and the survivor count [1] was 10 of 10 and 6 of 6. The survivor count [2] was 3 of 6, the survivor count [3] was 0 of 6 and the survivor count [4] was 0 of 6.

`O=C(OC1(c2nccc3ccccc23)CCNCC1)c1ccccc1` was tested, and the survivor count (dose: 100.0 mg/kg/injection, schedule: Q01DX005 (ip), vehicle: Klucel (hydroxypropylcellulose) (HPC)) was 3 of 6 and the survivor count (dose: 200.0 mg/kg/injection, schedule: Q01DX005 (ip), vehicle: Klucel (hydroxypropylcellulose) (HPC)) was 0 of 6.

With `CN(C)P(=O)(N(C)C)N1CCC1` the survivor count [5] was 6 of 6.

In the case of `Nc1ccccc1N=C(CC(=O)c1ccco1)C(F)(F)F`, the survivor count [6] is reported as 6 of 6 and the survivor count (dose: 50.0 mg/kg/injection, schedule: Q01DX009 (ip), vehicle: saline) is reported as 5 of 6.

`CN(C)CCOC(=O)Nc1cc(Cl)cc(Cl)c1` was tested, and the survivor count [7] was 2 of 6.

For `CCOP(=O)(O)C1CCCC(C)[N-]1.CCOP(=O)(O)C1CCCC(C)[N-]1.CCOP(=O)(O)C1CCCC(C)[N-]1.[Fe+3]` (centres undefined), the survivor count (dose: 100.0 mg/kg/injection, schedule: Q04DX003 (ip), vehicle: saline) was 5 of 6 and the survivor count (dose: 200.0 mg/kg/injection, schedule: Q04DX003 (ip), vehicle: saline) was 6 of 6.

For `COC(=O)C(N)Cc1ccc(OCc2ccccc2)cc1` (centres undefined), the survivor count (dose: 100.0 mg/kg/injection, schedule: Q01DX009 (ip), vehicle: saline) was 3 of 6, the survivor count [8] was 0 of 6 and 2 of 6 and the survivor count [5] was 0 of 6. The survivor count [9] was 0 of 6 and the survivor count [10] was 0 of 6.

With `Cc1nc(N)[nH]c(=O)c1CCCC#N` the survivor count [11] was 2 of 6.

With `Cc1ccc(SNc2ccccc2)cc1` the survivor count (dose: 200.0 mg/kg/injection, schedule: Q04DX003 (ip), vehicle: saline with Tween-80) was 5 of 6.

With `Cn1c(O)c(N=O)c(=O)[nH]c1=S` the survivor count (dose: 50.0 mg/kg/injection, schedule: Q04DX002 (ip), vehicle: saline) was 4 of 6, the survivor count [8] was 3 of 6 and the survivor count [9] was 0 of 6. The survivor count [10] was 0 of 6.

With `COc1cc2ccnc(CCCc3nccc4cc(OC)c(OC)cc34)c2cc1OC` the survivor count (dose: 200.0 mg/kg/injection, schedule: Q04DX002 (ip), vehicle: Klucel (hydroxypropylcellulose) (HPC)) was 1 of 6 and the survivor count (dose: 400.0 mg/kg/injection, schedule: Q04DX002 (ip), vehicle: Klucel (hydroxypropylcellulose) (HPC)) was 0 of 6.

For `CCCCCCCCCCCCCCCCN1CCS(=O)(=O)CC1`, the survivor count [12] was 6 of 6.

`CNCCCCCc1cc(-c2ccc([N+](=O)[O-])cc2)on1` was tested, and the survivor count (dose: 400.0 mg/kg/injection, schedule: Q04DX003 (ip), vehicle: saline with Tween-80) was 1 of 6.

In the case of `CNc1ccccc1C(=O)N1CCc2c([nH]c3ccccc23)C1=O`, the survivor count [13] is reported as 3 of 3.

`Cn1c(=O)c2[nH]c(Cl)nc2n(CCCl)c1=O` was tested, and the survivor count (dose: 6.25 mg/kg/injection, schedule: Q01DX009 (ip), vehicle: saline with Tween-80) was 6 of 6, the survivor count [14] was 0 of 6 and the survivor count (dose: 400.0 mg/kg/injection, schedule: Q01DX009 (ip), vehicle: saline with Tween-80) was 0 of 6.

In the case of `O=CC(=C\c1cccs1)/C(C=O)=C\c1cccs1`, the survivor count [15] is reported as 1 of 6.

`CCOc1cc2c(cc1C/C=C/c1cc(OC)c(OC)c(OC)c1)OCO2` was tested, and the survivor count (dose: 60.0 mg/kg/injection, schedule: Q01DX005 (ip), vehicle: saline with Tween-80) was 6 of 6, the survivor count (dose: 120.0 mg/kg/injection, schedule: Q01DX005 (ip), vehicle: saline with Tween-80) was 6 of 6 and the survivor count [7] was 6 of 6.

For `CCC(C)([N+](=O)[O-])[N+](=O)[O-]`, the survivor count (dose: 1.56 mg/kg/injection, schedule: Q01DX009 (ip), vehicle: Klucel (hydroxypropylcellulose) (HPC)) was 6 of 6, the survivor count (dose: 3.12 mg/kg/injection, schedule: Q01DX009 (ip), vehicle: Klucel (hydroxypropylcellulose) (HPC)) was 0 of 6 and the survivor count (dose: 6.25 mg/kg/injection, schedule: Q01DX009 (ip), vehicle: Klucel (hydroxypropylcellulose) (HPC)) was 0 of 6. The survivor count (dose: 12.5 mg/kg/injection, schedule: Q01DX009 (ip), vehicle: Klucel (hydroxypropylcellulose) (HPC)) was 0 of 6, the survivor count (dose: 25.0 mg/kg/injection, schedule: Q01DX009 (ip), vehicle: Klucel (hydroxypropylcellulose) (HPC)) was 0 of 6 and the survivor count [12] was 0 of 6. For the same compound, the survivor count (dose: 100.0 mg/kg/injection, schedule: Q01DX009 (ip), vehicle: Klucel (hydroxypropylcellulose) (HPC)) was 0 of 6 and the survivor count (dose: 200.0 mg/kg/injection, schedule: Q01DX009 (ip), vehicle: Klucel (hydroxypropylcellulose) (HPC)) was 0 of 6.

With `CCN(CC)CC.[CH-]1CCCCC1.[CH-]1CCCCC1.[CH3-].[Cl-].[I-].[Sn+4]` the survivor count [2] was 1 of 6, the survivor count [3] was 0 of 6 and the survivor count [4] was 0 of 6. The survivor count [15] was 0 of 6.

For `COc1ccc2nc3ccccc3c(SCCCCCCSc3c4ccccc4nc4ccc(OC)cc34)c2c1`, the survivor count (dose: 120.0 mg/kg/injection, schedule: Q01DX005 (ip), vehicle: Klucel (hydroxypropylcellulose) (HPC)) was 6 of 6 and the survivor count [11] was 6 of 6.

In the case of `C=CN=NNc1ccc(OC)cc1`, the survivor count (dose: 400.0 mg/kg/injection, schedule: Q04DX003 (ip), vehicle: saline + Tween-80 + alcohol) is reported as 3 of 6.

In the case of `O=P(N1CCCCC1)(N1CC1)N1CC1`, the T/C (dose: 8.33 mg/kg/injection, schedule: Q01DX009 (ip), vehicle: saline) is reported as 127 % of control and the survivor count (dose: 18.7 mg/kg/injection, schedule: Q01DX009 (ip), vehicle: saline) is reported as 6 of 6.

For `CC(C)C1OC(=O)/C=C/C=C/C=C/C=C/C=C/CC(O)C(C)C(O)CC(O)CC(O)CC(O)CC(O)CC(O)CC(O)/C=C/C1C` (centres undefined), the survivor count [6] was 3 of 6 and the survivor count (dose: 25.0 mg/kg/injection, schedule: Q01DX009 (ip), vehicle: saline) was 0 of 6.

`CCCC(CCC)=NNC(=S)SC` was tested, and the survivor count [16] was 1 of 6 and the survivor count [14] was 2 of 6.

With `CCOC(=O)N1CCc2cc3c(cc2C1Cc1ccc(OC)c(OC)c1CCl)OCO3` (centres undefined) the survivor count [15] was 6 of 6.

`CCCCNCC(O)c1cc2c(Cl)cc(Cl)cc2c2cc(C(F)(F)F)ccc12` (centres undefined) was tested, and the survivor count [13] was 6 of 6, the survivor count [16] was 1 of 6 and the survivor count [14] was 0 of 6.

In the case of `C[n+]1cccc2c1C(=O)C(=O)c1c-2ccc[n+]1C`, the survivor count [10] is reported as 1 of 6.
